No constants are given. Whether binding was seen depends on the method and setting. Some results given as binding are weak or reduced against the parent protein; the word gives no strength.
Biological target: transmembrane tumor necrosis factor (tmTNF), wild type, on bone-marrow-derived macrophages of WT mice (mouse (endogenous in BMDMs)) (UniProt P06804)
Experiment: flow cytometry on cells; imaging cytometry (ISX); non-polarized BMDMs stimulated with LPS (50 ng/mL) 30 min, then stained with ETA-dyelight488 in presence of Fc blocker for 20 min at 4° (0 min) or 37°C (20 min); internalization and modulation scores; only the binder purified

Amino acid sequences for entries named in this document (tags omitted). Residues count along the entry.
UniProt P06804: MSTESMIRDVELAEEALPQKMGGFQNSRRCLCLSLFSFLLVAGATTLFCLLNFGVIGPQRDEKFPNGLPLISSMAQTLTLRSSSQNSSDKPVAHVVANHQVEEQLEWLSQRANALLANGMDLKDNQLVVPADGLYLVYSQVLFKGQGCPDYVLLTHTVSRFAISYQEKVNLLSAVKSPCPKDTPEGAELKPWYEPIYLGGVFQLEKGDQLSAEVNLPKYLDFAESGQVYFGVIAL
UniProt P20333, residues 23-257: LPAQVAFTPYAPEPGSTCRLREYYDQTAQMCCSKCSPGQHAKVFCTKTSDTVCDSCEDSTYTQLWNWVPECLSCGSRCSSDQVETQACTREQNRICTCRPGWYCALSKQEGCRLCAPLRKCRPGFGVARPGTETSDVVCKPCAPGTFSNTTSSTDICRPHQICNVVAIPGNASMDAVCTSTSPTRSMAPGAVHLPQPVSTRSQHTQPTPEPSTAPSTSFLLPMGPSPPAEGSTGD

Substance: etanercept, a soluble form of TNFR2 coupled to human Fc domain (from UniProt P20333 23-257) (Fc fusion)
- binding: binds
